# Measurements as given in PMC9107765.
# Protein sequences, listed by entry. Tags and fused reporters are not part of them.
# UniProt Q9H0F5: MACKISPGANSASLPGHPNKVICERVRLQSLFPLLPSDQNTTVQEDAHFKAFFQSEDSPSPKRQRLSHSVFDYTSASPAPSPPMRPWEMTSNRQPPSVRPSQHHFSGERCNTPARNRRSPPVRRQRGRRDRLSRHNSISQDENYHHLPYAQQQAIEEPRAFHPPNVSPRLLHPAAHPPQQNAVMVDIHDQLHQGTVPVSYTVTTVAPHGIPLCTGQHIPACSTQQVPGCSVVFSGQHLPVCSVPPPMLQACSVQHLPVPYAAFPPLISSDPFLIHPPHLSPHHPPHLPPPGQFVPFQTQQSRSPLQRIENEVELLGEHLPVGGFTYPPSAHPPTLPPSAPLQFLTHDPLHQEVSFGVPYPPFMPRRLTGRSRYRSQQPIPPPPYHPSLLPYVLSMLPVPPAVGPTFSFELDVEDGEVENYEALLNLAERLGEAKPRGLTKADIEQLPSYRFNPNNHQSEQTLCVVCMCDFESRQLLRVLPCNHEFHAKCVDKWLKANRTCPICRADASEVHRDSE
# UniProt O43707: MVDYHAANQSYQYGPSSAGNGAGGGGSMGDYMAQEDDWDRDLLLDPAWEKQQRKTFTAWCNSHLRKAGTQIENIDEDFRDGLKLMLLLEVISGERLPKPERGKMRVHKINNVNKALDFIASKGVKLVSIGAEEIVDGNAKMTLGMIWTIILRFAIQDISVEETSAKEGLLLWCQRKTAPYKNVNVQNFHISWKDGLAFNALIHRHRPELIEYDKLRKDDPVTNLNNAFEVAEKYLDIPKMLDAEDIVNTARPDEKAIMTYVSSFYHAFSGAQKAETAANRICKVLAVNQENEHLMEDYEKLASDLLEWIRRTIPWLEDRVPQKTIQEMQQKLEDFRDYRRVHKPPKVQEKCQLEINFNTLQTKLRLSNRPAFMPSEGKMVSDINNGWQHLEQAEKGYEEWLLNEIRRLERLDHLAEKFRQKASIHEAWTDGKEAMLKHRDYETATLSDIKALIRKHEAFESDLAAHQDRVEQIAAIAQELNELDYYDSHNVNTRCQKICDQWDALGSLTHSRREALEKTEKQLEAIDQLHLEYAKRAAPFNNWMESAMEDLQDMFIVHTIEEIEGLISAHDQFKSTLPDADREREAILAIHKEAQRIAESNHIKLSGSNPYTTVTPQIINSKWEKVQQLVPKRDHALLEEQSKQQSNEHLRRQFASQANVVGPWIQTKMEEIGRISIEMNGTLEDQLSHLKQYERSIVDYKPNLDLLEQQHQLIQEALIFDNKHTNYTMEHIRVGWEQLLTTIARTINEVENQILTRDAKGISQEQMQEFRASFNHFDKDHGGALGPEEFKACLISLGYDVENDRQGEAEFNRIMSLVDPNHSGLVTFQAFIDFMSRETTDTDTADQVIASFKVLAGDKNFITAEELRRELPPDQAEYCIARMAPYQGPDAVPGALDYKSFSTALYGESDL
# These are yes or no findings as the source states them, for the method shown. In cells and extracts the contact can be indirect. Some binding calls cover weakened binding; strength is not graded here.
# Assays:
# [1] = molecular target: RNF38 (ring finger protein 38) (UniProt Q9H0F5); assay: co-IP; lysates of SUNE-1-NC and SUNE-1-RNF38 cells incubated with antibody to RNF38, ACTN4 or IgG at 4 °C overnight; protein A/G magnetic beads; washed with RIPA buffer; immunoblot for RNF38, ACTN4 and GAPDH; both orientations
# [2] = molecular target: ACTN4 (Actinin Alpha 4) (human (endogenous in SUNE-1)) (UniProt O43707); assay: as above
Substance,binding [1],binding [2]
ACTN4 (Actinin Alpha 4) (from UniProt O43707 1-911),binds,
RNF38 (ring finger protein 38) (from UniProt Q9H0F5 1-515) (enzyme),,binds
